Reference: PubChem BioAssay AID652259 (Drosophila RNAi Screening Center, 2013)
Aim: 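Genome-wide hunt for genes that control Wingless pathway activity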 (primary screen). System: Drosophila clone 8 imaginal disc epithelial cells. Knock-down reagent: long dsRNA against Drosophila genes. Conditions: pathway stimulated by co-transfected Wingless expression plasmid. Measured: 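Firefly luciferase from a tcf-site Wingless reporter, measured alongside co-transfected Renilla luciferase that tracks transfection; pathway stimulated by a Wingless plasmid; the firefly-to-Renilla ratio is not deposited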. Scale: firefly reporter light: higher = more Wg reporter light, before normalisation; Renilla control light: higher = more transfected or surviving cells. Call rule: 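a knock-down is a candidate when at least two out of four statistical tests show it departing from its plate mean; one test alone signals a weak candidate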. Calls: active = candidate regulator (raises or lowers reporter); inactive = not a candidate.
In all, the deposit lists about 22,000 reagents; shown is an unselected part of those that have a named target and a result. Over the whole deposit, 233 (1.1%) got an active call. 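Light values are raw, unnormalised plate reads; the ratio scores behind the reporter calls were not deposited.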 Not given: the amount of reagent, the time to read-out, the dose of the treatment.

After knock-down of arr [DRSC07451], the screen gave reporter change call, replicate 1 = Wg reporter activity lowered; firefly reporter light, replicate 1 = 1408; Renilla control light, replicate 1 = 3172; active.
Knock-down of Atg13 [DRSC16228] resulted in: firefly reporter light, replicate 1 = 15123; Renilla control light, replicate 1 = 3571; inactive.
Depletion of CG5024 [DRSC15698] came out at: firefly reporter light, replicate 1 = 21704; Renilla control light, replicate 1 = 20534; inactive.
Silencing of Pen [DRSC03396] came out at: firefly reporter light, replicate 1 = 6018; Renilla control light, replicate 1 = 2113; inactive.
After knock-down of CG13843 [DRSC14693] the results were firefly reporter light, replicate 1 = 19584; Renilla control light, replicate 1 = 12010; inactive.
LysB [DRSC08673] scored firefly reporter light, replicate 1 = 4992; Renilla control light, replicate 1 = 2281; inactive.
For eIF3b [DRSC06900] the deposit lists firefly reporter light, replicate 1 = 6545; Renilla control light, replicate 1 = 1772; inactive.
CG42663 [DRSC06158] gave firefly reporter light, replicate 1 = 7248; Renilla control light, replicate 1 = 1750; inactive.
CG42663 [DRSC06404] scored firefly reporter light, replicate 1 = 7024; Renilla control light, replicate 1 = 2503; inactive.
After knock-down of Tango8 [DRSC06474] the results were reporter change call, replicate 1 = Wg reporter activity raised; firefly reporter light, replicate 1 = 6293; firefly reporter light, replicate 2 = 1.06e6; Renilla control light, replicate 1 = 1130; Renilla control light, replicate 2 = 3.17e5; inactive.
CG1440 [DRSC17915] scored firefly reporter light, replicate 1 = 31035; Renilla control light, replicate 1 = 14108; inactive.
After knock-down of CG10996 [DRSC19363], the record shows firefly reporter light, replicate 1 = 27048; Renilla control light, replicate 1 = 16896; inactive.
Against CG13955 [DRSC06443], the entry reads firefly reporter light, replicate 1 = 2896; firefly reporter light, replicate 2 = 8395; Renilla control light, replicate 1 = 805; Renilla control light, replicate 2 = 4584; inactive.
With knock-down of CG8509 [DRSC20109], the screen gave firefly reporter light, replicate 1 = 1360; firefly reporter light, replicate 2 = 3449; Renilla control light, replicate 1 = 856; Renilla control light, replicate 2 = 1596; inactive.
JYalpha [DRSC17224] showed firefly reporter light, replicate 1 = 17360; Renilla control light, replicate 1 = 12522; inactive.
CG30039 [DRSC21794] gave firefly reporter light, replicate 1 = 2.38e5; firefly reporter light, replicate 2 = 2.58e5; Renilla control light, replicate 1 = 1.06e5; Renilla control light, replicate 2 = 1.06e5; inactive.

2 entries already listed, arranged by “Renilla control light, replicate 1”, low to high:
JYalpha [DRSC17224]: firefly reporter light, replicate 1 = 17360; Renilla control light, replicate 1 = 12522; call = inactive
CG30039 [DRSC21794]: firefly reporter light, replicate 1 = 2.38e5; firefly reporter light, replicate 2 = 2.58e5; Renilla control light, replicate 1 = 1.06e5; Renilla control light, replicate 2 = 1.06e5; call = inactive

Continued:
After knock-down of TwdlE [DRSC02392] the results were firefly reporter light, replicate 1 = 3840; firefly reporter light, replicate 2 = 5033; Renilla control light, replicate 1 = 968; Renilla control light, replicate 2 = 3013; inactive.
Against CG12206 [DRSC17828] the deposit lists firefly reporter light, replicate 1 = 24860; Renilla control light, replicate 1 = 14704; inactive.
Depletion of CG30460 [DRSC06559] resulted in: firefly reporter light, replicate 1 = 6690; Renilla control light, replicate 1 = 2921; inactive.
CG30460 [DRSC06560] gave reporter change call, replicate 1 = Wg reporter activity raised; firefly reporter light, replicate 1 = 7126; Renilla control light, replicate 1 = 518; inactive.
With knock-down of Gyf [DRSC17202], the record shows firefly reporter light, replicate 1 = 1984; firefly reporter light, replicate 2 = 5688; Renilla control light, replicate 1 = 859; Renilla control light, replicate 2 = 2096; inactive.
Against Pk34A [DRSC03398], the values are firefly reporter light, replicate 1 = 3584; firefly reporter light, replicate 2 = 6950; Renilla control light, replicate 1 = 1584; Renilla control light, replicate 2 = 3546; inactive.
For CG8188 [DRSC20090] the deposit lists firefly reporter light, replicate 1 = 17096; firefly reporter light, replicate 2 = 5.17e5; Renilla control light, replicate 1 = 9146; Renilla control light, replicate 2 = 3.14e5; inactive.
Knock-down of ich [DRSC12715] came out at: firefly reporter light, replicate 1 = 2567; Renilla control light, replicate 1 = 1177; inactive.
ich [DRSC14448] scored reporter change call, replicate 1 = Wg reporter activity lowered; firefly reporter light, replicate 1 = 7302; Renilla control light, replicate 1 = 3428; active.
